Assay results from patent publication US12419871B2, “Biomolecules involved in Alzheimer's disease” (ELECTROPHORETICS LIMITED, priority 2015, dated 2025).

assay: TMTcalibrator quantification of regulated proteins in AD CSF versus control; design: species or system human; details: CSF of AD patient versus control; non-modified peptides of each protein summed for three control and three AD cases

Molecule | Log2 AD/Control
P56181 (protein, UniProt P56181 1-108, looked up, full-length) MAAPCLLRQGRAGALKTMLQEAQVFRGLASTVSLSAESGKSEKGQPQNSKKQSPPKKPAPVPAEPFDNTTYKNLQHHDYSTYTFLDLNLELSKFRMPQPSSGRESPRH | 0.70
O14745 (protein, UniProt O14745 1-358, looked up, full-length) MSADAAAGAPLPRLCCLEKGPNGYGFHLHGEKGKLGQYIRLVEPGSPAEKAGLLAGDRLVEVNGENVEKETHQQVVSRIRAALNAVRLLVVDPETDEQLQKLGVQVREELLRAQEAPGQAEPPAAAEVQGAGNENEPREADKSHPEQRELRPRLCTMKKGPSGYGFNLHSDKSKPGQFIRSVDPDSPAEASGLRAQDRIVEVNGVCMEGKQHGDVVSAIRAGGDETKLLVVDRETDEFFKKCRVIPSQEHLNGPLPVPFTNGEIQKENSREALAEAALESPRPALVRSASSDTSEELNSQDSPPKQDSTAPSSTSSSDPILDFNISLAMAKERAHQKRSSKRAPQMDWSKKNELFSNL | 1.06
O00533 (protein, UniProt O00533 1-1208, looked up, full-length) MEPLLLGRGLIVYLMFLLLKFSKAIEIPSSVQQVPTIIKQSKVQVAFPFDEYFQIECEAKGNPEPTFSWTKDGNPFYFTDHRIIPSNNSGTFRIPNEGHISHFQGKYRCFASNKLGIAMSEEIEFIVPSVPKFPKEKIDPLEVEEGDPIVLPCNPPKGLPPLHIYWMNIELEHIEQDERVYMSQKGDLYFANVEEKDSRNDYCCFAAFPRLRTIVQKMPMKLTVNSSNSIKQRKPKLLLPPTESGSESSITILKGEILLLECFAEGLPTPQVDWNKIGGDLPKGRETKENYGKTLKIENVSYQDKGNYRCTASNFLGTATHDFHVIVEEPPRWTKKPQSAVYSTGSNGILLCEAEGEPQPTIKWRVNGSPVDNHPFAGDVVFPREISFTNLQPNHTAVYQCEASNVHGTILANANIDVVDVRPLIQTKDGENYATVVGYSAFLHCEFFASPEAVVSWQKVEEVKPLEGRRYHIYENGTLQINRTTEEDAGSYSCWVENAIGKTAVTANLDIRNATKLRVSPKNPRIPKLHMLELHCESKCDSHLKHSLKLSWSKDGEAFEINGTEDGRIIIDGANLTISNVTLEDQGIYCCSAHTALDSAADITQVTVLDVPDPPENLHLSERQNRSVRLTWEAGADHNSNISEYIVEFEGNKEEPGRWEELTRVQGKKTTVILPLAPFVRYQFRVIAVNEVGRSQPSQPSDHHETPPAAPDRNPQNIRVQASQPKEMIIKWEPLKSMEQNGPGLEYRVTWKPQGAPVEWEEETVTNHTLRVMTPAVYAPYDVKVQAINQLGSGPDPQSVTLYSGEDYPDTAPVIHGVDVINSTLVKVTWSTVPKDRVHGRLKGYQINWWKTKSLLDGRTHPKEVNILRFSGQRNSGMVPSLDAFSEFHLTVLAYNSKGAGPESEPYIFQTPEGVPEQPTFLKVIKVDKDTATLSWGLPKKLNGNLTGYLLQYQIINDTYEIGELNDINITTPSKPSWHLSNLNATTKYKFYLRACTSQGCGKPITEESSTLGEGSKGIGKISGVNLTQKTHPIEVFEPGAEHIVRLMTKNWGDNDSIFQDVIETRGREYAGLYDDISTQGWFIGLMCAIALLTLLLLTVCFVKRNRGGKYSVKEKEDLHPDPEIQSVKDETFGEYSDSDEKPLKGSLRSLNRDMQPTESADSLVEYGEGDHGLFSEDGSFIGAYAGSKEKGSVESNGSSTATFPLRA | 0.80
O14734 (protein, UniProt O14734 1-319, looked up, full-length) MSSPQAPEDGQGCGDRGDPPGDLRSVLVTTVLNLEPLDEDLFRGRHYWVPAKRLFGGQIVGQALVAAAKSVSEDVHVHSLHCYFVRAGDPKLPVLYQVERTRTGSSFSVRSVKAVQHGKPIFICQASFQQAQPSPMQHQFSMPTVPPPEELLDCETLIDQYLRDPNLQKRYPLALNRIAAQEVPIEIKPVNPSPLSQLQRMEPKQMFWVRARGYIGEGDMKMHCCVAAYISDYAFLGTALLPHQWQHKVHFMVSLDHSMWFHAPFRADHWMLYECESPWAGGSRGLVHGRLWRQDGVLAVTCAQEGVIRVKPQVSESKL | 0.76
Q13825 (protein, UniProt Q13825 1-339, looked up, full-length) MAAAVAAAPGALGSLHAGGARLVAACSAWLCPGLRLPGSLAGRRAGPAIWAQGWVPAAGGPAPKRGYSSEMKTEDELRVRHLEEENRGIVVLGINRAYGKNSLSKNLIKMLSKAVDALKSDKKVRTIIIRSEVPGIFCAGADLKERAKMSSSEVGPFVSKIRAVINDIANLPVPTIAAIDGLALGGGLELALACDIRVAASSAKMGLVETKLAIIPGGGGTQRLPRAIGMSLAKELIFSARVLDGKEAKAVGLISHVLEQNQEGDAAYRKALDLAREFLPQGPVAMRVAKLAINQGMEVDLVTGLAIEEACYAQTIPTKDRLEGLLAFKEKRPPRYKGE | 1.50
Q9H936 (protein, UniProt Q9H936 1-323, looked up, full-length) MADKQISLPAKLINGGIAGLIGVTCVFPIDLAKTRLQNQQNGQRVYTSMSDCLIKTVRSEGYFGMYRGAAVNLTLVTPEKAIKLAANDFFRHQLSKDGQKLTLLKEMLAGCGAGTCQVIVTTPMEMLKIQLQDAGRIAAQRKILAAQGQLSAQGGAQPSVEAPAAPRPTATQLTRDLLRSRGIAGLYKGLGATLLRDVPFSVVYFPLFANLNQLGRPASEEKSPFYVSFLAGCVAGSAAAVAVNPCDVVKTRLQSLQRGVNEDTYSGILDCARKILRHEGPSAFLKGAYCRALVIAPLFGIAQVVYFLGIAESLLGLLQDPQA | 0.66
O95865 (protein, UniProt O95865 1-285, looked up, full-length) MGTPGEGLGRCSHALIRGVPESLASGEGAGAGLPALDLAKAQREHGVLGGKLRQRLGLQLLELPPEESLPLGPLLGDTAVIQGDTALITRPWSPARRPEVDGVRKALQDLGLRIVEIGDENATLDGTDVLFTGREFFVGLSKWTNHRGAEIVADTFRDFAVSTVPVSGPSHLRGLCGMGGPRTVVAGSSDAAQKAVRAMAVLTDHPYASLTLPDDAAADCLFLRPGLPGVPPFLLHRGGGDLPNSQEALQKLSDVTLVPVSCSELEKAGAGLSSLCLVLSTRPHS | 0.83
P12235 (protein, UniProt P12235 1-298, looked up, full-length) MGDHAWSFLKDFLAGGVAAAVSKTAVAPIERVKLLLQVQHASKQISAEKQYKGIIDCVVRIPKEQGFLSFWRGNLANVIRYFPTQALNFAFKDKYKQLFLGGVDRHKQFWRYFAGNLASGGAAGATSLCFVYPLDFARTRLAADVGKGAAQREFHGLGDCIIKIFKSDGLRGLYQGFNVSVQGIIIYRAAYFGVYDTAKGMLPDPKNVHIFVSWMIAQSVTAVAGLVSYPFDTVRRRMMMQSGRKGADIMYTGTVDCWRKIAKDEGAKAFFKGAWSNVLRGMGGAFVLVLYDEIKKYV | 0.71
Q9NPD7 (protein, UniProt Q9NPD7 1-142, looked up, full-length) MGLKLNGRYISLILAVQIAYLVQAVRAAGKCDAVFKGFSDCLLKLGDSMANYPQGLDDKTNIKTVCTYWEDFHSCTVTALTDCQEGAKDMWDKLRKESKNLNIQGSLFELCGSGNGAAGSLLPAFPVLLVSLSAALATWLSF | 0.94
P07108 (protein, UniProt P07108 1-87, looked up, full-length) MSQAEFEKAAEEVRHLKTKPSDEEMLFIYGHYKQATVGDINTERPGMLDFTGKAKWDAWNELKGTSKEDAMKAYINKVEELKKKYGI | 1.18
Q10713 (protein, UniProt Q10713 1-525, looked up, full-length) MAAVVLAATRLLRGSGSWGCSRLRFGPPAYRRFSSGGAYPNIPLSSPLPGVPKPVFATVDGQEKFETKVTTLDNGLRVASQNKFGQFCTVGILINSGSRYEAKYLSGIAHFLEKLAFSSTARFDSKDEILLTLEKHGGICDCQTSRDTTMYAVSADSKGLDTVVALLADVVLQPRLTDEEVEMTRMAVQFELEDLNLRPDPEPLLTEMIHEAAYRENTVGLHRFCPTENVAKINREVLHSYLRNYYTPDRMVLAGVGVEHEHLVDCARKYLLGVQPAWGSAEAVDIDRSVAQYTGGIAKLERDMSNVSLGPTPIPELTHIMVGLESCSFLEEDFIPFAVLNMMMGGGGSFSAGGPGKGMFSRLYLNVLNRHHWMYNATSYHHSYEDTGLLCIHASADPRQVREMVEIITKEFILMGGTVDTVELERAKTQLTSMLMMNLESRPVIFEDVGRQVLATRSRKLPHELCTLIRNVKPEDVKRVASKMLRGKPAVAALGDLTDLPTYEHIQTALSSKDGRLPRTYRLFR | 0.70
Q8N3F0 (protein, UniProt Q8N3F0 1-131, looked up, full-length) MDFQQLADVAEKWCSNTPFELIATEETERRMDFYADPGVSFYVLCPDNGCGDNFHVWSESEDCLPFLQLAQDYISSCGKKTLHEVLEKVFKSFRPLLGLPDADDDAFEEYSADVEEEEPEADHPQMGVSQQ | 0.89
Q9UHQ9 (protein, UniProt Q9UHQ9 1-305, looked up, full-length) MGIQTSPVLLASLGVGLVTLLGLAVGSYLVRRSRRPQVTLLDPNEKYLLRLLDKTTVSHNTKRFRFALPTAHHTLGLPVGKHIYLSTRIDGSLVIRPYTPVTSDEDQGYVDLVIKVYLKGVHPKFPEGGKMSQYLDSLKVGDVVEFRGPSGLLTYTGKGHFNIQPNKKSPPEPRVAKKLGMIAGGTGITPMLQLIRAILKVPEDPTQCFLLFANQTEKDIILREDLEELQARYPNRFKLWFTLDHPPKDWAYSKGFVTADMIREHLPAPGDDVLVLLCGPPPMVQLACHPNLDKLGYSQKMRFTY | 0.72
Q5HYI7 (protein, UniProt Q5HYI7 1-312, looked up, full-length) MAAPLELSCWGGGWGLPSVHSESLVVMAYAKFSGAPLKVNVIDNTWRGSRGDVPILTTEDDMVSQPAKILNFLRKQKYNADYELSAKQGADTLAYIALLEEKLLPAVLHTFWVESDNYFTVTKPWFASQIPFPLSLILPGRMSKGALNRILLTRGQPPLYHLREVEAQIYRDAKECLNLLSNRLGTSQFFFGDTPSTLDAYVFGFLAPLYKVRFPKVQLQEHLKQLSNLCRFCDDILSSYFRLSLGGISPAGQETVDANLQKLTQLVNKESNLIEKMDDNLRQSPQLPPRKLPTLKLTPAEEENNSFQRLSP | 1.07
